Assay results from patent US11214593B2 (SUIGENERIS FARMACOSMETICS, S.L., priority 2017, dated 2022).
HELM strings list residues between dots; [ac] is acetyl, [am] amide, other brackets name non-standard units.

Assay: general procedure: Fmoc solid-phase peptide synthesis; Rink-amide resin; DIPCDI/HOBt
Conditions: whole synthesis

Substance	purity (crude or final not stated)
CFEISKY-NH2 (C-terminal amide; MOD_RES (7)..(7) AMIDATION)	97.54%
CH3-C(O)-CFEVSKY-NH2 (N-acetyl; C-terminal amide; MOD_RES (1)..(1) …ON; MOD_RES (7)..(7) AMIDATION)	97.45%
CH3-C(O)-CVFSTAL-NH2	99.12%
CH3-C(O)-FEISKY-NH2	90.54%
CH3-C(O)-VFSTAL-NH2	94.14%
PEPTIDE1{[ac].C.F.E.I.S.K.Y.[am]}$$$$V2.0	97.00%
